Measurements reported in PubChem BioAssay AID1259405 (NCATS, 2018).
Test: 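Silenced genes that increase secreted GFP made by CHO cells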 (primary screen). Cells: Chinese hamster CHO-K1 ovary cells with stable secreted eGFP expression. Knock-down reagent: single siRNA against mouse genes, 0.8 pmol siRNA per well (2 µl of 400 nM stock). Time to read-out: 3 days. Read-out: 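Percent of the per-plate non-targeting control median for intracellular GFP per well by laser scanning cytometry and for cell viability by ATP luminescence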. Reading the numbers: GFP, % of control: higher = more GFP per well, higher productivity; viability (ATP), % of control: higher = more viable cells (more ATP). Hit rule: 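Called active when intracellular GFP, relative to negative control, is at or above 120%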.
Here is an unselected part of about 50,000 reagents. About 4,000 of them (8%) were called active. 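Mouse siRNA library applied to hamster cells; one well for each siRNA.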 The numbers tell different reagents against one gene apart.

gene	reagent no.	GFP, % of control	viability (ATP), % of control	call
Catsperg2	1	135	129	active
Catsperg2	2	181	122	active
Catsperg2	3	64.9	60.6	inactive
E330013P04Rik	1	89.7	91.1	inactive
E330013P04Rik	2	118	64.2	inactive
E330013P04Rik	3	76.3	92.8	inactive
Rab36	1	143	126	active
Rab36	2	115	90.8	inactive
Rab36	3	44.3	44.8	inactive
Mcpt2	1	124	135	active
Mcpt2	2	93.2	102	inactive
Mcpt2	3	118	101	inactive
Apobec1	1	77.4	94.9	inactive
Apobec1	2	170	119	active
Apobec1	3	82.1	96.7	inactive
Gfm1	1	47.3	39.4	inactive
Gfm1	2	108	60.7	inactive
Gfm1	3	63.3	65.1	inactive
Atp6v0a4	1	57.2	58.9	inactive
Atp6v0a4	2	74.3	63.1	inactive
Atp6v0a4	3	55.3	74	inactive
Slc35e2	1	45.6	16.1	inactive
Slc35e2	2	73	79.2	inactive
Slc35e2	3	71.7	78.2	inactive
Nox1	1	110	122	inactive
Nox1	2	30.3	46.8	inactive
Nox1	3	80.2	74.4	inactive
Skida1	1	63	78.6	inactive
Skida1	2	83.1	80.9	inactive
Skida1	3	109	91.1	inactive
Or7g34	1	93.9	89.8	inactive
Or7g34	2	26.2	17.5	inactive
Or7g34	3	91.5	99.7	inactive
Clrn1	1	71.9	67.4	inactive
Clrn1	2	64.6	78	inactive
Clrn1	3	74.5	88.8	inactive
Dnajc15	1	81.8	78	inactive
Dnajc15	2	54.1	43.3	inactive
Dnajc15	3	58.1	54	inactive
Ttc39c	1	64.5	52.7	inactive
Ttc39c	2	83.1	50.7	inactive
Ttc39c	3	89.9	63.3	inactive
Or4k48	1	102	93.1	inactive
Or4k48	2	123	87.8	active
Or4k48	3	51.4	80.5	inactive
Lrrc9	1	101	85.5	inactive
Lrrc9	2	72.1	93.4	inactive
Lrrc9	3	94.2	74.1	inactive
G6pc2	1	109	94.2	inactive
G6pc2	2	79.3	74	inactive
G6pc2	3	81	70.2	inactive
Unc93b1	1	76.6	71.4	inactive
Unc93b1	2	40	76	inactive
Unc93b1	3	56.7	64.6	inactive
Tnfrsf22	1	98.1	80.8	inactive
Tnfrsf22	2	95.7	80.6	inactive
Tnfrsf22	3	75.8	81.1	inactive

Quoted from the entries so far, 9 entries:
gene	reagent no.	GFP, % of control	viability (ATP), % of control	call
Or4k48	2	123	87.8	active
Or4k48	3	51.4	80.5	inactive
Lrrc9	1	101	85.5	inactive
Lrrc9	2	72.1	93.4	inactive
Lrrc9	3	94.2	74.1	inactive
G6pc2	1	109	94.2	inactive
G6pc2	2	79.3	74	inactive
G6pc2	3	81	70.2	inactive
Unc93b1	1	76.6	71.4	inactive
